According to patent publication US20200239888:

Key:
[1] = target: T1, FUS(1-526)[P525L]-NLUC-FLAG (UniProt P35637); test: competition with a labelled probe; conditions: competitive nanoBRET vs AF594-JB39; reported as KD (50% dissociation of BRET pair); text NLUC-FLAG; protein translated in vitro; protein details: C-terminal NLUC-FLAG, PURExpress, bead-bound; single-stranded DNA
T1 sequence (looked up): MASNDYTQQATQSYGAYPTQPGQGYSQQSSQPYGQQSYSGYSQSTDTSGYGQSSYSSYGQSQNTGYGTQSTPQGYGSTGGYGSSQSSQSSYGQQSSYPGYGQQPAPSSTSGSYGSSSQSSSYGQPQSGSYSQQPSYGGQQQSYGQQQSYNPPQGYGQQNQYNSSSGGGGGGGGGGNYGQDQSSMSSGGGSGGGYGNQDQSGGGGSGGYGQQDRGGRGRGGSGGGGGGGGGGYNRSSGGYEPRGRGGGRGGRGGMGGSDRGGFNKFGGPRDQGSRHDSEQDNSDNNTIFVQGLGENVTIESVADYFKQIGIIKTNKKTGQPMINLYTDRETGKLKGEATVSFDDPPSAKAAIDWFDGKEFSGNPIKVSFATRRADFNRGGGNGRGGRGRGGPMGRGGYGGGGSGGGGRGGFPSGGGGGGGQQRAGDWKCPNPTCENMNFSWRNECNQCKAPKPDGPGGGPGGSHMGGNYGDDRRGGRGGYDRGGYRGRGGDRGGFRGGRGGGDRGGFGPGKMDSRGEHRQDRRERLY

PSF / p54nrb heterodimer = test: competition with a labelled probe; conditions: 2'-F at 1-5 and 16-20, DNA at 6-15; full PS; 5mC at C8, C9, C11; disruption of PSF-p54nrb BRET in HeLa lysate; reported as KD (50% dissociation); protein in a lysate after overexpression

Row | Sequence | IC50 [1] [nM] | IC50 (PSF / p54nrb heterodimer) [nM]
1 | CTGCTAGCCTCTGGATTTGA [JB40 (DNA, phosphodiester)] | > 1000 | 
2 | CUGCUAGCCTCTGGAUUUGA [404130 (2'-F 5-10-5 gapmer)] |  | 0.66

For some assays here: Where a protein sequence is shown, tags need not be part of it. For some assays here: The exact form of at least one protein or probe is not confirmed. For some assays here: Results from cells or extracts need not show a direct contact.
